# Publication PMC2164959
# Sequences of proteins named here, by UniProt entry; tags and fusion partners are left off. Residues count along the entry.
# UniProt P27824, residues 21-592: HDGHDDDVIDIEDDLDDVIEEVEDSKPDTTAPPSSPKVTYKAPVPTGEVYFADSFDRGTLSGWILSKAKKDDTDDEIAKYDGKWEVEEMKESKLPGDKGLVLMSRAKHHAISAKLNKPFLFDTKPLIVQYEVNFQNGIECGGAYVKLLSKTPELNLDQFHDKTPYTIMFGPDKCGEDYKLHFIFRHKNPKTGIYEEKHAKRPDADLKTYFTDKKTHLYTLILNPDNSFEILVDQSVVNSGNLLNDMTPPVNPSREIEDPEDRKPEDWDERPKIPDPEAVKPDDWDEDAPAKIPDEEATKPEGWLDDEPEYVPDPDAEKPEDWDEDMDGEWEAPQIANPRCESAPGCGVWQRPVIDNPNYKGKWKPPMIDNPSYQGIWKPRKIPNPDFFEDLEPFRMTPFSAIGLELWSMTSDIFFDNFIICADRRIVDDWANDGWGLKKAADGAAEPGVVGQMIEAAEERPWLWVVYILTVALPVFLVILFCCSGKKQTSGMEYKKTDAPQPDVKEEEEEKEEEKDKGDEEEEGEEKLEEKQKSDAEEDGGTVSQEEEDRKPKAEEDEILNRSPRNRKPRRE
# Results are given in words; binding and its absence hold for the method and conditions named. Binding seen in cells or lysates may run through a third protein. A result given as binding can be weak or reduced; the word gives no strength.
# Target: GFP-tagged HPV16 E5 mutant M1 (pEGFP-M1) (human papillomavirus type 16) (UniProt P06927)
# Assay: co-IP; HEK-293T transfected, lysed 20-24 h after transfection in CHAPS buffer (0.2 M NaCl, 50 mM HEPES pH 7.5, 2% CHAPS); immunoprecipitation by the tag of E5 (anti-AU1, anti-HA or anti-GFP), protein G-sepharose, blot with anti-calnexin
substance,measurement,value
calnexin (from UniProt P27824 21-592),binding,binds
